In PMC10021989:
These are yes or no findings as the source states them, for the method shown. Binding seen in cells or lysates may run through a third protein. Some binding calls cover weakened binding; strength is not graded here.

Amino acid sequences for entries named in this document (tags omitted).
UniProt Q9DCJ1: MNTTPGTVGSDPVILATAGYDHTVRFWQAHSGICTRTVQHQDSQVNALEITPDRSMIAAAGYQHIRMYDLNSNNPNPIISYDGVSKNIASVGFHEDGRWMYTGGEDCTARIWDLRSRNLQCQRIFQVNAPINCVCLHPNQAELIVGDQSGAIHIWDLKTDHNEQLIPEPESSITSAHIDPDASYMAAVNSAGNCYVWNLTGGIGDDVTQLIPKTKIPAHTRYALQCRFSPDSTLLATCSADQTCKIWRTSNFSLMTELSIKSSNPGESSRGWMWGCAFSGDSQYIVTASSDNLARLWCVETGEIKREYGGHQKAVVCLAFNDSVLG
UniProt Q6QI06: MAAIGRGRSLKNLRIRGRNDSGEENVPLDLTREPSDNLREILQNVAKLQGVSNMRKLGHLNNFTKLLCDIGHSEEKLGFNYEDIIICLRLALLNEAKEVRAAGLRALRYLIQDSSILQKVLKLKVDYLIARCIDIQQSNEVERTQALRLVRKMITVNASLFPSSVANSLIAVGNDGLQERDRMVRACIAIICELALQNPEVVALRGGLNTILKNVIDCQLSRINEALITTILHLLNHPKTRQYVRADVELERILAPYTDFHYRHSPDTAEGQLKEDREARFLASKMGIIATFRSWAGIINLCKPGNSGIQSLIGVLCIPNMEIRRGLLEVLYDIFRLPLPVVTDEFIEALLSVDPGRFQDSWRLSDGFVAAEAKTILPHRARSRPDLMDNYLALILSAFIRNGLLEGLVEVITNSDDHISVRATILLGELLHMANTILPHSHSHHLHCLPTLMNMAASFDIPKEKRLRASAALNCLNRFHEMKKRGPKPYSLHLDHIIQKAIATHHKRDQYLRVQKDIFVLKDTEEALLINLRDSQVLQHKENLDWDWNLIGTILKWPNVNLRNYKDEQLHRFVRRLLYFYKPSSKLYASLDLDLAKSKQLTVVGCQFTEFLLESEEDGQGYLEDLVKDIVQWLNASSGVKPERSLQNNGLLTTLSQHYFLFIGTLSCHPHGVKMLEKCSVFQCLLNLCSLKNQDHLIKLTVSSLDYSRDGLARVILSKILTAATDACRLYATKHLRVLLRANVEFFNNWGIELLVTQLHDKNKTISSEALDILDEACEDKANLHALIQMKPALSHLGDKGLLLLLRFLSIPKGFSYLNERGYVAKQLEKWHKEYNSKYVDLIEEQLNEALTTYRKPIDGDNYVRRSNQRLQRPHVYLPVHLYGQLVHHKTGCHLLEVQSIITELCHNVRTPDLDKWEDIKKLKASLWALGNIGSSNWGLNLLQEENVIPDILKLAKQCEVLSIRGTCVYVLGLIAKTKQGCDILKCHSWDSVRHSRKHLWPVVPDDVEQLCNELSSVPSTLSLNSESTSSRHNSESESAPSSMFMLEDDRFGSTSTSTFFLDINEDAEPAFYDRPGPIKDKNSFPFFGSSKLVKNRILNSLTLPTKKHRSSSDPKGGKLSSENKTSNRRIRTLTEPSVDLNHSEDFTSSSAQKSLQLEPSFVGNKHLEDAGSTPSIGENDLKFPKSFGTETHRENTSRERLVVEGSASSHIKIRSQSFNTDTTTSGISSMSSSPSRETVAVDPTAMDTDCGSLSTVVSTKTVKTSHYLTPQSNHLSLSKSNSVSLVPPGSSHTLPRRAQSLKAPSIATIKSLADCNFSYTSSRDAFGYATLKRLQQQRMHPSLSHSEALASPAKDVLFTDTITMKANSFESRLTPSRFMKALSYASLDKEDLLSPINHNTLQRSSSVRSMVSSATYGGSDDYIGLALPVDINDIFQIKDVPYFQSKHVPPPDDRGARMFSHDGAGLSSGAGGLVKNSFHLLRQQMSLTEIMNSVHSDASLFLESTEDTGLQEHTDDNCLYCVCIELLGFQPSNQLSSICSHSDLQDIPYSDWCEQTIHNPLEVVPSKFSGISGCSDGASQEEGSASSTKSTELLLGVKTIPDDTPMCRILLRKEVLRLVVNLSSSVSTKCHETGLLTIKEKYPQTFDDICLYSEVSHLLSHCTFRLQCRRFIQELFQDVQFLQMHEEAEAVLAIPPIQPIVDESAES
UniProt Q8K4Q0: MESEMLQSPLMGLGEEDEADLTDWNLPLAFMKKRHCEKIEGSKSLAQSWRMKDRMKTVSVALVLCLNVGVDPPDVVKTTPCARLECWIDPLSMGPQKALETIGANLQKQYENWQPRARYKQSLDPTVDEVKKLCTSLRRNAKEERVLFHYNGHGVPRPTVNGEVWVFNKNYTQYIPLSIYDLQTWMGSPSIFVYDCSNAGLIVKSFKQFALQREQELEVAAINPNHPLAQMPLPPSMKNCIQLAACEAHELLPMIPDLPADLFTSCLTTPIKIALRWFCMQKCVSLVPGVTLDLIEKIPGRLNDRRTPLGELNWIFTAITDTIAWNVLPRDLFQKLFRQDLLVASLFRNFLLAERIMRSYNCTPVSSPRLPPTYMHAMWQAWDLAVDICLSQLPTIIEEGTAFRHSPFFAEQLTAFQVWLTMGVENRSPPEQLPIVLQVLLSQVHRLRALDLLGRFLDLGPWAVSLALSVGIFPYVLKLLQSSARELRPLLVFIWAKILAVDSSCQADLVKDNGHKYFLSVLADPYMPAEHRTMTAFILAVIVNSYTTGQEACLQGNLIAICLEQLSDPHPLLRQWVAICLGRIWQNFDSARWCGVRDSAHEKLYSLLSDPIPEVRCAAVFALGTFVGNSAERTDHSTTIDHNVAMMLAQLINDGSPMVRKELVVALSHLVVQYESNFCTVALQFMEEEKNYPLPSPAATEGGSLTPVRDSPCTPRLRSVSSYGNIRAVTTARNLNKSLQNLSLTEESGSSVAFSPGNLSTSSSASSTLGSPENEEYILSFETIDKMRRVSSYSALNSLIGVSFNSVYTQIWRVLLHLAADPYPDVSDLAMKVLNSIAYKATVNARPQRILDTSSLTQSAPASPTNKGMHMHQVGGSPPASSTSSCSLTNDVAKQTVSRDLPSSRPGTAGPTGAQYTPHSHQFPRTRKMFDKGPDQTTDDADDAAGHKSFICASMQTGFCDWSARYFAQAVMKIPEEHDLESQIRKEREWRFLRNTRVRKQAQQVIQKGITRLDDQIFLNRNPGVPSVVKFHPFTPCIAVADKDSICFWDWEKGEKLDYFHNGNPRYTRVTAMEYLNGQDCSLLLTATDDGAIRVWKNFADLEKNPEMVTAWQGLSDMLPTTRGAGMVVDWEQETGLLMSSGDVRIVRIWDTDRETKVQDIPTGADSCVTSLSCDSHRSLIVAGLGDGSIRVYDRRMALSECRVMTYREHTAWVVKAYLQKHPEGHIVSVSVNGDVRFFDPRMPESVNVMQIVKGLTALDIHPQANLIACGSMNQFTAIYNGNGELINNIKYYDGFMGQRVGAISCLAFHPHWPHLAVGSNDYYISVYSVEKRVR
UniProt Q8BKH7: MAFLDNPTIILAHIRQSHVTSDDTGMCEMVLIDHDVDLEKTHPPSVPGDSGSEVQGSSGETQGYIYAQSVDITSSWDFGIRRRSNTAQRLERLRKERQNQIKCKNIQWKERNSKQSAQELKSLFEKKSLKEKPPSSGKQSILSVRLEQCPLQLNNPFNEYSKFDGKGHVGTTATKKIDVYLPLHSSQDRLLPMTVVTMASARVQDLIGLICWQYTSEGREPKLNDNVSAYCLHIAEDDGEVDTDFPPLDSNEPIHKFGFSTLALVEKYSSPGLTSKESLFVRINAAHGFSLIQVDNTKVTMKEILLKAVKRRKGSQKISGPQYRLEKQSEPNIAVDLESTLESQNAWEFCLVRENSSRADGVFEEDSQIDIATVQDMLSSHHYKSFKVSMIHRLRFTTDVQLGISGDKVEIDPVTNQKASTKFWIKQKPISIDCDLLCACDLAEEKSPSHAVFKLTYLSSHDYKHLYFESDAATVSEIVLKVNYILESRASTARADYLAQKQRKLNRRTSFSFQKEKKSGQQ

What follows are substances tested against G protein beta subunit-like protein (GβL) (mouse (endogenous in MFLECs)) (UniProt Q9DCJ1) (assay: co-IP; lysates of primary MFLECs (5 mM glucose control or 30 mM glucose; also with si-NC or TRAF2 siRNA) incubated with protein A beads pre-bound with an anti-GβL antibody at 4 °C overnight; precipitates analysed by western blot).

binding, binds:
rapamycin-insensitive companion of mTOR (Rictor) (from UniProt Q6QI06 1-1708), regulatory-associated protein of mTOR (Raptor) (from UniProt Q8K4Q0 1-1335), stress-activated protein kinase interacting protein 1 (Sin1) (from UniProt Q8BKH7 1-522)
